How the values were obtained:
Assay in all cases: minimum inhibitory concentration
rifampicin = compound: CO[C@H]1/C=C/O[C@@]2(C)Oc3c(C)c(O)c4c(O)c(c(/C=N/N5CCN(C)CC5)c(O)c4c3C2=O)NC(=O)/C(C)=C\C=C\[C@H](C)[C@H](O)[C@@H](C)[C@@H](O)[C@@H](C)[C@H](OC(C)=O)[C@@H]1C [rifampicin]
fidaxomicin = compound: CCc1c(Cl)c(O)c(Cl)c(O)c1C(=O)O[C@H]1[C@H](O)[C@H](OC)[C@H](OC/C2=C\C=C\C[C@H](O)/C(C)=C/[C@H](CC)[C@@H](O[C@@H]3OC(C)(C)[C@@H](OC(=O)C(C)C)[C@H](O)[C@@H]3O)/C(C)=C/C(C)=C/C[C@@H]([C@@H](C)O)OC2=O)O[C@@H]1C [fidaxomicin]
tigecycline = compound: CN(C)c1cc(NC(=O)CNC(C)(C)C)c(O)c2c1C[C@H]1C[C@H]3[C@H](N(C)C)C(O)=C(C(N)=O)C(=O)[C@@]3(O)C(O)=C1C2=O [tigecycline]
linezolid = compound: CC(=O)NC[C@H]1CN(c2ccc(N3CCOCC3)c(F)c2)C(=O)O1 [linezolid]
vancomycin = compound: CN[C@H](CC(C)C)C(=O)N[C@H]1C(=O)N[C@@H](CC(N)=O)C(=O)N[C@H]2C(=O)N[C@H]3C(=O)N[C@H](C(=O)N[C@H](C(=O)O)c4cc(O)cc(O)c4-c4cc3ccc4O)[C@H](O)c3ccc(c(Cl)c3)Oc3cc2cc(c3O[C@@H]2O[C@H](CO)[C@@H](O)[C@H](O)[C@H]2O[C@H]2C[C@](C)(N)[C@H](O)[C@H](C)O2)Oc2ccc(cc2Cl)[C@H]1O [vancomycin]
meropenem = compound: C[C@@H](O)[C@H]1C(=O)N2C(C(=O)O)=C(S[C@@H]3CN[C@H](C(=O)N(C)C)C3)[C@H](C)[C@H]12 [meropenem]
metronidazole = compound: Cc1ncc([N+](=O)[O-])n1CCO [metronidazole]
clindamycin = compound: CCC[C@@H]1C[C@@H](C(=O)N[C@@H]([C@H]2O[C@H](SC)[C@H](O)[C@@H](O)[C@H]2O)[C@H](C)Cl)N(C)C1 [clindamycin]
imipenem = compound: C[C@@H](O)[C@H]1C(=O)N2C(C(=O)O)=C(SCCNC=N)C[C@H]12 [imipenem]

Test System | minimum inhibitory concentration (rifampicin) [µg/mL] | minimum inhibitory concentration (fidaxomicin) [µg/mL] | minimum inhibitory concentration (tigecycline) [µg/mL] | minimum inhibitory concentration (linezolid) [µg/mL] | minimum inhibitory concentration (vancomycin) [µg/mL] | minimum inhibitory concentration (meropenem) [µg/mL] | minimum inhibitory concentration (metronidazole) [µg/mL] | minimum inhibitory concentration (clindamycin) [µg/mL] | minimum inhibitory concentration (imipenem) [µg/mL]
Clostridioides difficile PCR ribotype 027 isolate #127 (European region: South, country: Italy, isolate source: Human, ribotype: 027) | 16 | 0.03 | 0.06 | 2 | 0.5 | 4 | 1 | 16 | 4
Clostridioides difficile PCR ribotype 027 isolate #128 (European region: South, country: Italy, isolate source: Human, ribotype: 027) | 16 | 0.03 | 0.06 | 2 | 0.5 | 4 | 1 | 32 | 4
Clostridioides difficile PCR ribotype 027 isolate #129 (European region: East, country: Poland, isolate source: Human, ribotype: 027) | 16 | 0.03 | 0.06 | 2 | 0.5 | 4 | 4 | 8 | 2
Clostridioides difficile PCR ribotype 027 isolate #130 (European region: East, country: Poland, isolate source: Human, ribotype: 027) | < 0.001 | 0.03 | 0.06 | 2 | 1 | 4 | 4 | 8 | 4
Clostridioides difficile PCR ribotype 027 isolate #131 (European region: East, country: Poland, isolate source: Human, ribotype: 027) | < 0.001 | 0.03 | 0.06 | 2 | 1 | 8 | 4 | 8 | 4
Clostridioides difficile PCR ribotype 027 isolate #132 (European region: East, country: Poland, isolate source: Human, ribotype: 027) | < 0.001 | 0.03 | 0.06 | 2 | 1 | 8 | 4 | 8 | 4
Clostridioides difficile PCR ribotype 027 isolate #133 (European region: East, country: Poland, isolate source: Human, ribotype: 027) | < 0.001 | 0.03 | 0.06 | 2 | 1 | 8 | 4 | 8 | 4
Clostridioides difficile PCR ribotype 027 isolate #134 (European region: East, country: Poland, isolate source: Human, ribotype: 027) | < 0.001 | 0.03 | 0.06 | 2 | 1 | 8 | 4 | 8 | 4
Clostridioides difficile PCR ribotype 029 isolate #135 (European region: South, country: Spain, isolate source: Human, ribotype: 029) | < 0.001 | 0.06 | < 0.03 | 2 | 1 | 2 | 0.25 | 16 | 2
Clostridioides difficile PCR ribotype 029 isolate #311 (European region: West, country: Netherlands, isolate source: Animal, ribotype: 029) | < 0.001 | 0.015 | < 0.03 | 2 | 0.5 | 2 | < 0.125 | 2 | 2
Clostridioides difficile PCR ribotype 031 isolate #136 (European region: North, country: UK, isolate source: Human, ribotype: 031) | < 0.001 | 0.06 | 0.06 | 2 | 1 | 2 | 0.25 | 2 | 4
Clostridioides difficile PCR ribotype 031 isolate #137 (European region: North, country: UK, isolate source: Human, ribotype: 031) | < 0.001 | 0.06 | 0.06 | 2 | 0.5 | 2 | 0.25 | 4 | 4

Complete entries, quoted from the list. Order of values: minimum inhibitory concentration (rifampicin) [µg/mL] | minimum inhibitory concentration (fidaxomicin) [µg/mL] | minimum inhibitory concentration (tigecycline) [µg/mL] | minimum inhibitory concentration (linezolid) [µg/mL] | minimum inhibitory concentration (vancomycin) [µg/mL] | minimum inhibitory concentration (meropenem) [µg/mL] | minimum inhibitory concentration (metronidazole) [µg/mL] | minimum inhibitory concentration (clindamycin) [µg/mL] | minimum inhibitory concentration (imipenem) [µg/mL]
Clostridioides difficile PCR ribotype 027 isolate #132 (European region: East, country: Poland, isolate source: Human, ribotype: 027) in the list: < 0.001 | 0.03 | 0.06 | 2 | 1 | 8 | 4 | 8 | 4
Clostridioides difficile PCR ribotype 027 isolate #128 (European region: South, country: Italy, isolate source: Human, ribotype: 027) in the list: 16 | 0.03 | 0.06 | 2 | 0.5 | 4 | 1 | 32 | 4

From the supplement of paper PMC11264405
